These results are taken from patent US20250066417A9 (ENLITISA (SHANGHAI) PHARMACEUTICAL CO., LTD., priority 2021, published 2025).

Where no end group is shown, it is not given here. [ ]: non-standard residue; d: D form. Dopa = N[C@@H](Cc1ccc(O)c(O)c1)C(=O)O; Hyp = O=C(O)[C@@H]1C[C@@H](O)CN1

The series is described as follows: general procedure: Fmoc solid-phase peptide synthesis; Fmoc-Lys(Fmoc)-Wang resin; Fmoc-Lys(Boc)-Wang resin (GL Biochem). Particulars: whole synthesis, acetate.
The mark [1] stands for this setting: HPLC, UV at 220 nm (Shimadzu LCMS-8050 / LC-20, ZORBAX Eclipse SB-C18).

In the case of AKPSY[Hyp]TY[Hyp]K, under setting [1], the “final HPLC purity” value came to 98%. The “crude HPLC purity” value (UV 220 nm) stood at 79.363%. For the substance AKPSY[Hyp]T[Dopa][Hyp]K, under setting [1], the “crude HPLC purity” value is on record as 75.674%. With AKPSY[Hyp][Hyp]TY[Hyp]K, the “crude HPLC purity” value under setting [1] came to 72.868%. Still for that read-out and setting: the same measure for AKPSY[Hyp][Hyp]T[Dopa][Hyp]K: 73.943%.

As to KPSY[Hyp]TY[Hyp]K, under setting [1], the “crude HPLC purity” value was 79.035%. Still for that read-out and setting: the figure for KPSY[Hyp]T[Dopa][Hyp]K is 78.932%. Still for that read-out and setting: the same measure for KPSY[Hyp][Hyp]TY[Hyp]K: 73.958%; for KPSY[Hyp][Hyp]T[Dopa][Hyp]K: 76.035%. Regarding SKPSY[Hyp]TY[Hyp]K, under setting [1], the “crude HPLC purity” value was determined as 76.229%. Same read-out and setting: the figure for SKPSY[Hyp]T[Dopa][Hyp]K is 77.018%. The same measure, in the same setting: the same measure for SKPSY[Hyp][Hyp]TYK: 75.338%.

Regarding SKPSY[Hyp][Hyp]T[Dopa]K, the “crude HPLC purity” value under setting [1] stood at 76.933%.
